Experimental data: patent US20180140667A1
Results are given in words; binding and its absence hold for the method and conditions named. Binding seen in cells or lysates may run through a third protein. Some entries that bind do so weakly or less than the wild type. For some of these results: Where a sequence is shown, tags or fusion partners need not be part of it.

By UniProt entry, the sequences of proteins in these tests, tags left out. Where a name states a change or a piece, a line headed by the entry shows the natural chain unless it says otherwise.
UniProt P19838: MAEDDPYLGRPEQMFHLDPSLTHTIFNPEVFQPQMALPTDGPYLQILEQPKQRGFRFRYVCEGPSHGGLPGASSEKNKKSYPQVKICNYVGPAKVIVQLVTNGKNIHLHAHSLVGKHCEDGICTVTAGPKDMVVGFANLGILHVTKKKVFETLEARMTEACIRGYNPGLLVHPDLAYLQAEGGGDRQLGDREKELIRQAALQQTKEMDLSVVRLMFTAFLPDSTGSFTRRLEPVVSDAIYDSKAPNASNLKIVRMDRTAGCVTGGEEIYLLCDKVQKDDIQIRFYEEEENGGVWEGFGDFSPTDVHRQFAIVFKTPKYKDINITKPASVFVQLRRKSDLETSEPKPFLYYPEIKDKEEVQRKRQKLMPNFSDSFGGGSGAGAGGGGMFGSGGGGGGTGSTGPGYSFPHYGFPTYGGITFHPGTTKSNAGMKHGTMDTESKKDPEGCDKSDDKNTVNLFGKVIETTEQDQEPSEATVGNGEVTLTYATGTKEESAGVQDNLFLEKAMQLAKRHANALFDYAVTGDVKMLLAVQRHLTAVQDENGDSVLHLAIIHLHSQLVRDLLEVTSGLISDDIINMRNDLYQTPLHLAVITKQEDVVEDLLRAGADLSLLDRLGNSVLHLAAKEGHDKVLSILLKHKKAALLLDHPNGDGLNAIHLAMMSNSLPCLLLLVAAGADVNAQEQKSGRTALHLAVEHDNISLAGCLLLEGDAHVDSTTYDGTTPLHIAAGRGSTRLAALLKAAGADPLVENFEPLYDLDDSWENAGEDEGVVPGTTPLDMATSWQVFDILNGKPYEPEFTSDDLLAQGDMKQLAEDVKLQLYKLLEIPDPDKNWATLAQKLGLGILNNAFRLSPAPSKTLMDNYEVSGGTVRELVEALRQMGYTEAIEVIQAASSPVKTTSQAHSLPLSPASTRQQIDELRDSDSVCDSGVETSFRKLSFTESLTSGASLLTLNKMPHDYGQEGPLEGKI

What was measured:
[1] = target: FLAG-p105Δ574-803 (human) (UniProt P19838); assay: co-immunoprecipitation: anti-FLAG IP from HEK293 cells, anti-KPC1 blot (FIG. 3D)
[2] = target: FLAG-p105K594,625,630,637,639,640,684,740R (human) (UniProt P19838); assay: co-immunoprecipitation: anti-FLAG IP from HEK293 cells, anti-KPC1 blot (FIG. 10B)
[3] = target: FLAG-p105Δ574-803 (human) (UniProt P19838); assay: co-immunoprecipitation: anti-FLAG IP from HEK293 cells, anti-KPC1 blot (FIG. 3D legend)
FLAG-p105 (human) [4] = target: FLAG-p105 (human) (UniProt P19838); assay: co-immunoprecipitation: anti-FLAG IP of FLAG-p105 from HEK293 lysate, anti-KPC1 blot (FIG. 2B)
FLAG-p105 (human) [5] = target: FLAG-p105 (human) (UniProt P19838); assay: co-immunoprecipitation: anti-FLAG IP from HeLa cells treated or not with TNFα (50 ng/ml, 30 min), anti-KPC1 blot (FIG. 8E legend)
[6] = target: endogenous p105 (HeLa cells) (human) (UniProt P19838); assay: co-immunoprecipitation from HeLa lysate with anti-p50, anti-KPC1 blot (FIG. 8B)
[7] = target: endogenous p105 (HeLa cells) (human) (UniProt P19838); assay: co-immunoprecipitation from HeLa lysate with anti-p50, anti-KPC1 blot (FIG. 8B legend)

Measured: binding

B1: Myc-KPC1 (enzyme, not shown: small tags and cut ends)
chain: MASKGAGMSFSRKSYRLTSDAEKSRVTGIVQEKLLNDYLNRIFSSSEHAPPAATSRKPLNFQNLPEHLDQLLQVDNEEEESQGQVEGRLGPSTVVLDHTGGFEGLLLVDDDLLGVIGHSNFGTIRSTTCVYKGKWLYEVLISSQGLMQIGWCTISCRFNQEEGVGDTHNSYAYDGNRVRKWNVTTTNYGKAWAAGDIVSCLIDLDDGTLSFCLNGVSLGTAFENLSRGLGMAYFPAISLSFKESVAFNFGSRPLRYPVAGYRPLQDPPSADLVRAQRLLGCFRAVLSVELDPVEGRLLDKESSKWRLRGQPTVLLTLAHIFHHFAPLLRKVYLVEAVLMSFLLGIVEKGTPTQAQSVVHQVLDLLWLFMEDYEVQDCLKQLMMSLLRLYRFSPIVPDLGLQIHYLRLTIAILRHEKSRKFLLSNVLFDVLRSVVFFYIKSPLRVEEAGLQELIPTTWWPHCSSREGKESTEMKEETAEERLRRRAYERGCQRLRKRIEVVEELQVQILKLLLDNKDDNGGEASRYIFLTKFRKFLQENASGRGNMPMLCPPEYMVCFLHRLISALRYYWDEYKASNPHASFSEEAYIPPQVFYNGKVDYFDLQRLGGLLSHLRKTLKDDLASKANIVIDPLELQSTAMDDLDEDEEPAPAMAQRPMQALAVGGPLPLPRPGWLSSPTLGRANRFLSTAAVSLMTPRRPLSTSEKVKVRTLSVEQRTREDIEGSHWNEGLLLGRPPEEPEQPLTENSLLEVLDGAVMMYNLSVHQQLGKMVGVSDDVNEYAMALRDTEDKLRRCPKRRKDILAELTKSQKVFSEKLDHLSRRLAWVHATVYSQEKMLDIYWLLRVCLRTIEHGDRTGSLFAFMPEFYLSVAINSYSALKNYFGPVHSMEELPGYEETLTRLAAILAKHFADARIVGTDIRDSLMQALASYVCYPHSLRAVERIPEEQRIAMVRNLLAPYEQRPWAQTNWILVRLWRGCGFGYRYTRLPHLLKTKLEDANLPSLQKPCPSTLLQQHMADLLQQGPDVAPSFLNSVLNQLNWAFSEFIGMIQEIQQAAERLERNFVDSRQLKVCATCFDLSVSLLRVLEMTITLVPEIFLDWTRPTSEMLLRRLAQLLNQVLNRVTAERNLFDRVVTLRLPGLESVDHYPILVAVTGILVQLLVRGPASEREQATSVLLADPCFQLRSICYLLGQPEPPAPGTALPAPDRKRFSLQSYADYISADELAQVEQMLAHLTSASAQAAAASLPTSEEDLCPICYAHPISAVFQPCGHKSCKACINQHLMNNKDCFFCKTTIVSVEDWEKGANTSTTSSAA
not listed: [6] | [7]
binds: all other assays above

B2: endogenous KPC1 (HeLa cells) (enzyme)
chain: ASKGAGMSFSRKSYRLTSDAEKSRVTGIVQEKLLNDYLNRIFSSSEHAPPAATSRKPLNFQNLPEHLDQLLQVDNEEEESQGQVEGRLGPSTVVLDHTGGFEGLLLVDDDLLGVIGHSNFGTIRSTTCVYKGKWLYEVLISSQGLMQIGWCTISCRFNQEEGVGDTHNSYAYDGNRVRKWNVTTTNYGKAWAAGDIVSCLIDLDDGTLSFCLNGVSLGTAFENLSRGLGMAYFPAISLSFKESVAFNFGSRPLRYPVAGYRPLQDPPSADLVRAQRLLGCFRAVLSVELDPVEGRLLDKESSKWRLRGQPTVLLTLAHIFHHFAPLLRKVYLVEAVLMSFLLGIVEKGTPTQAQSVVHQVLDLLWLFMEDYEVQDCLKQLMMSLLRLYRFSPIVPDLGLQIHYLRLTIAILRHEKSRKFLLSNVLFDVLRSVVFFYIKSPLRVEEAGLQELIPTTWWPHCSSREGKESTEMKEETAEERLRRRAYERGCQRLRKRIEVVEELQVQILKLLLDNKDDNGGEASRYIFLTKFRKFLQENASGRGNMPMLCPPEYMVCFLHRLISALRYYWDEYKASNPHASFSEEAYIPPQVFYNGKVDYFDLQRLGGLLSHLRKTLKDDLASKANIVIDPLELQSTAMDDLDEDEEPAPAMAQRPMQALAVGGPLPLPRPGWLSSPTLGRANRFLSTAAVSLMTPRRPLSTSEKVKVRTLSVEQRTREDIEGSHWNEGLLLGRPPEEPEQPLTENSLLEVLDGAVMMYNLSVHQQLGKMVGVSDDVNEYAMALRDTEDKLRRCPKRRKDILAELTKSQKVFSEKLDHLSRRLAWVHATVYSQEKMLDIYWLLRVCLRTIEHGDRTGSLFAFMPEFYLSVAINSYSALKNYFGPVHSMEELPGYEETLTRLAAILAKHFADARIVGTDIRDSLMQALASYVCYPHSLRAVERIPEEQRIAMVRNLLAPYEQRPWAQTNWILVRLWRGCGFGYRYTRLPHLLKTKLEDANLPSLQKPCPSTLLQQHMADLLQQGPDVAPSFLNSVLNQLNWAFSEFIGMIQEIQQAAERLERNFVDSRQLKVCATCFDLSVSLLRVLEMTITLVPEIFLDWTRPTSEMLLRRLAQLLNQVLNRVTAERNLFDRVVTLRLPGLESVDHYPILVAVTGILVQLLVRGPASEREQATSVLLADPCFQLRSICYLLGQPEPPAPGTALPAPDRKRFSLQSYADYISADELAQVEQMLAHLTSASAQAAAASLPTSEEDLCPICYAHPISAVFQPCGHKSCKACINQHLMNNKDCFFCKTTIVSVEDWEKGANTSTTSSAA
binds: [6] | [7]
